Reference: PubChem BioAssay AID1259254 (NCATS, 2017)

Assay: 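Genome-wide screen for genes that prevent DNA re-replication in cancer cells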 (primary screen)
Cell system: human HCT116 colorectal cancer cells
Knock-down reagent: single siRNA against human genes
Timing: 3 days
Measured: 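Nuclei stained with Hoechst and imaged; cell-cycle phase assigned by DNA content; G2 share scaled per plate, non-targeting siRNA 0%, GMNN siRNA 100%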
Scale: G2 robust z-score and G2 cells, % of GMNN control: higher = more G2 cells, more excess DNA replication; raw share of cells in G2: higher = larger share of cells with G2 DNA content
Rule for the call: 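Active siRNAs have a G2 robust z of 5 or more median absolute deviations over the median, which in these data means about 38% or higher of GMNN control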
In all, the deposit lists about 59,000 reagents; this is an unselected part. About 1,550 of all reagents (2.6%) count as active. 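G2 share is only a proxy for re-replication; each gene was hit by three separate siRNAs, and active genes were retested.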 Raw values vary from plate to plate and are shown uncorrected. The numbers tell different reagents against one gene apart. Reagent sequences are not shown. The record does not give: the amount of reagent.

target	reagent no.	G2 robust z-score	G2 cells, % of GMNN control	raw share of cells in G2 (%)	activity call
MFN1P1 (GeneID 441511)	1	-0.0879	2.35	4.53	inactive
MFN1P1 (GeneID 441511)	2	-1.02	-4.22	1.81	inactive
MFN1P1 (GeneID 441511)	3	-0.656	-1.65	2.56	inactive
FHL5 (GeneID 9457)	1	-0.477	-0.385	3.4	inactive
FHL5 (GeneID 9457)	2	1.01	10	10.5	inactive
FHL5 (GeneID 9457)	3	-0.122	2.11	4.22	inactive
CELF2-AS2 (GeneID 439950)	1	4.2	32.5	18.3	inactive
CELF2-AS2 (GeneID 439950)	2	1.09	10.6	7.68	inactive
CELF2-AS2 (GeneID 439950)	3	2.36	19.6	11.3	inactive
RAET1E (GeneID 135250)	1	0.804	8.62	8.32	inactive
RAET1E (GeneID 135250)	2	-1.46	-7.29	2.48	inactive
RAET1E (GeneID 135250)	3	-0.276	1.03	5.08	inactive
TMEM178A (GeneID 130733)	1	9.57	70.3	30.7	active
TMEM178A (GeneID 130733)	2	1.56	13.9	7.52	inactive
TMEM178A (GeneID 130733)	3	-0.444	-0.156	2.52	inactive
DSTNP4 (GeneID 729454)	1	-0.497	-0.527	3.88	inactive
DSTNP4 (GeneID 729454)	2	1.81	15.7	8.52	inactive
DSTNP4 (GeneID 729454)	3	0.243	4.68	4.88	inactive
SLA (GeneID 6503)	1	0.345	5.4	7.27	inactive
SLA (GeneID 6503)	2	-0.288	0.944	4.59	inactive
SLA (GeneID 6503)	3	-0.279	1	3.72	inactive
H2AC1 (GeneID 221613)	1	-0.436	-0.102	3.54	inactive
H2AC1 (GeneID 221613)	2	-0.297	0.876	3.43	inactive
H2AC1 (GeneID 221613)	3	-0.313	0.767	3.44	inactive
BTBD1 (GeneID 53339)	1	-0.932	-3.59	2.92	inactive
BTBD1 (GeneID 53339)	2	-1.2	-5.47	3.47	inactive
BTBD1 (GeneID 53339)	3	0.0961	3.64	5.2	inactive
PHF21A (GeneID 51317)	1	-1.3	-6.17	1.97	inactive
PHF21A (GeneID 51317)	2	-1.08	-4.64	2.02	inactive
PHF21A (GeneID 51317)	3	2.42	20	15	inactive
RHOJ (GeneID 57381)	1	1.42	12.9	11	inactive
RHOJ (GeneID 57381)	2	1.25	11.8	8.51	inactive
RHOJ (GeneID 57381)	3	6.52	48.8	22	active
ALKBH6 (GeneID 84964)	1	-0.312	0.774	3.24	inactive
ALKBH6 (GeneID 84964)	2	1.57	14	7.36	inactive
ALKBH6 (GeneID 84964)	3	0.0763	3.5	5.57	inactive
ADAM32 (GeneID 203102)	1	3.21	25.5	16.4	inactive
ADAM32 (GeneID 203102)	2	5.1	38.8	17.3	active
ADAM32 (GeneID 203102)	3	-0.481	-0.42	4.11	inactive
FGD3 (GeneID 89846)	1	-0.519	-0.684	5.35	inactive
FGD3 (GeneID 89846)	2	-0.967	-3.84	3.32	inactive
FGD3 (GeneID 89846)	3	-0.212	1.48	5.04	inactive
ZNF419 (GeneID 79744)	1	-0.728	-2.16	2.03	inactive
ZNF419 (GeneID 79744)	2	-0.332	0.63	6.19	inactive
ZNF419 (GeneID 79744)	3	0.974	9.82	6.72	inactive
NPS (GeneID 594857)	1	-0.915	-3.47	2.28	inactive
NPS (GeneID 594857)	2	-0.481	-0.42	3.26	inactive
NPS (GeneID 594857)	3	-0.511	-0.628	2.91	inactive

Records listed so far marked active (3):
target	reagent no.	G2 robust z-score	G2 cells, % of GMNN control	raw share of cells in G2 (%)	activity call
TMEM178A (GeneID 130733)	1	9.57	70.3	30.7	active
RHOJ (GeneID 57381)	3	6.52	48.8	22	active
ADAM32 (GeneID 203102)	2	5.1	38.8	17.3	active
